Results are given in words; binding and its absence hold for the method and conditions named. Binding seen in cells or lysates may run through a third protein. Some entries that bind do so weakly or less than the wild type. For some assays here: Where a sequence is shown, tags or fusion partners need not be part of it.
How the values were obtained:
Wnt7a_ΔSP (human) = target: T1, Wnt7a_ΔSP (human) (UniProt O00755); test: proximity ligation; Duolink PLA in fixed HEK293T cells transfected with Wnt7a-FL, Wnt7a_ΔEBP*GSGS or Wnt7a_ΔSP; control without Wnt7a antibody
T1 sequence: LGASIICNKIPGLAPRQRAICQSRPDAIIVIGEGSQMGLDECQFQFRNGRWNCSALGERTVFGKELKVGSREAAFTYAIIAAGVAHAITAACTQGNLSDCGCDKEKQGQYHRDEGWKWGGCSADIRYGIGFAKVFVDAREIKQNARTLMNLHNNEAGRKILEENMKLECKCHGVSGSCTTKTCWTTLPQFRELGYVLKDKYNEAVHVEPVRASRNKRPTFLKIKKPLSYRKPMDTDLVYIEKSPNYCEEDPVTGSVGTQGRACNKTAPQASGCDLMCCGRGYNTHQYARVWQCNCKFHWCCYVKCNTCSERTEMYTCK

Wnt7a_ΔEBP*GSGS (human) = target: T2, Wnt7a_ΔEBP*GSGS (human) (UniProt O00755); test: as above
T2 sequence: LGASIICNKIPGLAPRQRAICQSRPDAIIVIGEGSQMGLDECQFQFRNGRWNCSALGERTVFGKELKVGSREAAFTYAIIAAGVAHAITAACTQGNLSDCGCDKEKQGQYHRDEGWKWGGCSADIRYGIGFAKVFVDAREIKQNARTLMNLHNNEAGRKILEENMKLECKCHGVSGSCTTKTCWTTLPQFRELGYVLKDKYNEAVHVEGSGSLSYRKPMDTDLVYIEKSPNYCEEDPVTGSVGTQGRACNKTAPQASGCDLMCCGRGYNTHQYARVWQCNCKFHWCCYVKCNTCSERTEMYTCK

[1] = target: T3, full-length Wnt7a-HA (Wnt7a-FL) (human) (UniProt O00755); test: as above
T3 sequence: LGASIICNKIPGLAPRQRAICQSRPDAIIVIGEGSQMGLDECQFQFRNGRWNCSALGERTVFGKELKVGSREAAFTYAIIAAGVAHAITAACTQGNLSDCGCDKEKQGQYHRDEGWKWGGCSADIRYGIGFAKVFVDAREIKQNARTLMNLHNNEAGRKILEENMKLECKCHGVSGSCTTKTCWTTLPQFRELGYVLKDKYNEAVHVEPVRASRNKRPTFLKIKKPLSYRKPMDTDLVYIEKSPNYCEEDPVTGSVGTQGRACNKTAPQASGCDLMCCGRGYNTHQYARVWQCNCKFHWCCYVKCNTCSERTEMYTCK

[2] = target: T3, full-length Wnt7a-HA (Wnt7a-FL) (human); test: co-IP; lysate of HEK293T cells overexpressing Wnt7a-HA; immunoprecipitation with COPB2 or HA antibody on Dynabeads Protein G; 50 mM tris pH 7.5, 150 mM NaCl, 0.5% Triton X-100; immunoblot
[3] = target: T4, endogenous Wnt7a (human (endogenous in RPTEC-hTERT1)) (UniProt O00755); test: proximity ligation; Duolink PLA in fixed RPTEC-hTERT1 cells, endogenous proteins; control without Wnt7a antibody
T4 sequence: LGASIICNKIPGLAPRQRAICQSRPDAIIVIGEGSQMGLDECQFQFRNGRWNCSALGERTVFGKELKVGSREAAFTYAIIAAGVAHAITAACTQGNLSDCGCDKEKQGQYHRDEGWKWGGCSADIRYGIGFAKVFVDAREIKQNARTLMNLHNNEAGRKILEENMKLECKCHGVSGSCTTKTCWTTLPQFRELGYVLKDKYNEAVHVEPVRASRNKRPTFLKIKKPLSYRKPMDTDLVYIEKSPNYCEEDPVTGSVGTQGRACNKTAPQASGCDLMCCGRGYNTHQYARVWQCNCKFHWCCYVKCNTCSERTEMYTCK

binding (Wnt7a_ΔSP (human)): binds | binding (Wnt7a_ΔEBP*GSGS (human)): no binding | binding [1]: binds | binding [2]: binds | binding [3]: binds
B1: COPA (coatomer protein), human (protein, UniProt P53621 1-1224)
chain: MLTKFETKSARVKGLSFHPKRPWILTSLHNGVIQLWDYRMCTLIDKFDEHDGPVRGIDFHKQQPLFVSGGDDYKIKVWNYKLRRCLFTLLGHLDYIRTTFFHHEYPWILSASDDQTIRVWNWQSRTCVCVLTGHNHYVMCAQFHPTEDLVVSASLDQTVRVWDISGLRKKNLSPGAVESDVRGITGVDLFGTTDAVVKHVLEGHDRGVNWAAFHPTMPLIVSGADDRQVKIWRMNESKAWEVDTCRGHYNNVSCAVFHPRQELILSNSEDKSIRVWDMSKRTGVQTFRRDHDRFWVLAAHPNLNLFAAGHDGGMIVFKLERERPAYAVHGNMLHYVKDRFLRQLDFNSSKDVAVMQLRSGSKFPVFNMSYNPAENAVLLCTRASNLENSTYDLYTIPKDADSQNPDAPEGKRSSGLTAVWVARNRFAVLDRMHSLLIKNLKNEITKKVQVPNCDEIFYAGTGNLLLRDADSITLFDVQQKRTLASVKISKVKYVIWSADMSHVALLAKHAIVICNRKLDALCNIHENIRVKSGAWDESGVFIYTTSNHIKYAVTTGDHGIIRTLDLPIYVTRVKGNNVYCLDRECRPRVLTIDPTEFKFKLALINRKYDEVLHMVRNAKLVGQSIIAYLQKKGYPEVALHFVKDEKTRFSLALECGNIEIALEAAKALDDKNCWEKLGEVALLQGNHQIVEMCYQRTKNFDKLSFLYLITGNLEKLRKMMKIAEIRKDMSGHYQNALYLGDVSERVRILKNCGQKSLAYLTAATHGLDEEAESLKETFDPEKETIPDIDPNAKLLQPPAPIMPLDTNWPLLTVSKGFFEGTIASKGKGGALAADIDIDTVGTEGWGEDAELQLDEDGFVEATEGLGDDALGKGQEEGGGWDVEEDLELPPELDISPGAAGGAEDGFFVPPTKGTSPTQIWCNNSQLPVDHILAGSFETAMRLLHDQVGVIQFGPYKQLFLQTYARGRTTYQALPCLPSMYGYPNRNWKDAGLKNGVPAVGLKLNDLIQRLQLCYQLTTVGKFEEAVEKFRSILLSVPLLVVDNKQEIAEAQQLITICREYIVGLSVETERKKLPKETLEQQKRICEMAAYFTHSNLQPVHMILVLRTALNLFFKLKNFKTAATFARRLLELGPKPEVAQQTRKILSACEKNPTDAYQLNYDMHNPFDICAASYRPIYRGKPVEKCPLSGACYSPEFKGQICRVTTVTEIGKDVIGLRISPLQFR

From article PMC11633749, “Identification of the Wnt signal peptide that directs secretion on extracellular vesicles” (Science Advances, 2024)
